Source: patent US20240336897A1, “COMPOSITIONS AND METHODS FOR CELL REPROGRAMMING” (CORNELL UNIVERSITY, priority 2021, published 2024)
Some results were stated once for a whole list of compounds, not compound by compound.

Test system: biPSCs
Assay: Base medium lacking individual inhibitors for GSK3β, MEK1/2 or TGFβ/activin/nodal
Settings: GMTi base medium lacking this inhibitor

Cc1c[nH]c(-c2cnc(NCCNc3ccc(C#N)cn3)nc2-c2ccc(Cl)cc2Cl)n1 [CHIR99021]
time at which shifts to cell morphology consistent with differentiation are noted after removal: ≤ 48 hours
